Where a chain is given by its changes, count along the chain named. Results are given in words; binding and its absence hold for the method and conditions named. A result given as binding can be weak or reduced; the word gives no strength.
What was measured:
[1] = biological target: human factor XIa (human) (UniProt P03951); experiment: SPR, antibody captured, FXIa flowed
[2] = biological target: human factor XIa (human) (UniProt P03951); experiment: SPR, antibody captured on sensor chip, FXIa flowed
[3] = biological target: human factor XIa (human) (UniProt P03951); experiment: SPR (Biacore T200), antibody captured on sensor chip, FXIa flowed
[4] = biological target: human factor XIa (human) (UniProt P03951); experiment: SPR (Biacore T200), antibody captured on anti-human IgG CM5 chip, FXIa flowed, 1:1 fit

Protein sequences, listed by entry. Tags and fused reporters are not part of them. Lines headed by an entry give the natural chain unless they say otherwise; changes in a name come on top.
UniProt P03951: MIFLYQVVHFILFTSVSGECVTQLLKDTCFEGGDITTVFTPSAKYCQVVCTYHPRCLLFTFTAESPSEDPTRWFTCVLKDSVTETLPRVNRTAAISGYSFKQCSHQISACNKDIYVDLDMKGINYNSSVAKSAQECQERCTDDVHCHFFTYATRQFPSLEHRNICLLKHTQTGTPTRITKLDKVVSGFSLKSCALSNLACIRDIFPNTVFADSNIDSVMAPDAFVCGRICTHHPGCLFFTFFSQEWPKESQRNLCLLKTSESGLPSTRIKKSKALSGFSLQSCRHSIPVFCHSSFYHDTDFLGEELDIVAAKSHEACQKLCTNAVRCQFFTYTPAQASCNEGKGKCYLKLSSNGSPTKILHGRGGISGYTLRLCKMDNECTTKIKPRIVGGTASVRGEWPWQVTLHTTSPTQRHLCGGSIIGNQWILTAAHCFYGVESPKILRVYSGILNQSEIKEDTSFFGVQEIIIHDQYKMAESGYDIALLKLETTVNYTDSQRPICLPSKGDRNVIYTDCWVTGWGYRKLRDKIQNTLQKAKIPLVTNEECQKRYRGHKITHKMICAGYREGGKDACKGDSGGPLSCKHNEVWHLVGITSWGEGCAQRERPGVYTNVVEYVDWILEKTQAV

Measured: binding

B1: h-19F6 (antibody, V domains shown)
VH: EVQLVESGGGLVQPGRSLRLSCTASGFTFSKYAMSWVRQAPGKGLEWVSAINYDGSTTYYADSVKGRFTLSRDNSKNTLYLQMNSLRAEDTAVYYCARHPFNNFGIWFAYWGQGTLVTVS
VL: QFQLTQPSSVSASVGDRVTITCERSSGDIGDSYVSWYQQKPGQPPKNVIYADDQRPSGVPDRFSGSIDGSGNSASLTISSLQAEDAADYFCQSYDSNIDFNPVFGGGTKLEVK
binds: all assays above

B2: h-42A5 (antibody, V domains shown)
VH: QVTLKESGPVLVKPTETLTLTCTVSGFSLTSYHLHWIRQPPGKALEWMGLMWRDGDTSYNSRLKSRLTISRDTSKSQVVLTMTNMDPVDTATYYCARGMTLATPFLYWGQGTLVTVSS
VL: DVVLTQTPLSLSVTPGQPASISCRSSQSLESSDGNTYLEWYLQKPGQSPQLLIYGVSNRFSGVPDRFSGSGSGTDFTLKISRVEAEDLGVYYCFQATRDPFTFGQGTKLEIKR
binds: all assays above

B3: h-34F8 (antibody, V domains shown)
VH: QVQLQESGPGLVKPSETLSLTCTVSGFSLTTYHVHWVRQPPGKGLEWIGIMWRDGDTYYNSSLKSRVTISRDTSKNQVSLKLSSVTAADTAVYFCARGGTLTTPFTYWGQGTLVTVSS
VL: B2 VL with S12P, Q17E, S32R, L51V, I53L, F60L, L88V, R98H, D99G
binds: [1] | [4]

— US20200024362A1
